{"source": "PubChem BioAssay AID1347076", "about": "(National Center for Advancing Translational Sciences (NCATS), 2019)", "note": "Hit rate of the full screen: of about 400,000 compounds, about 13,000 (3.2%) were called active. The shares of active, inactive and inconclusive entries below differ from those in the screen. Calls follow the shape of the dose curve; as a rule, active = well fitted cell-killing curve with a large enough effect; inconclusive = small, poorly fitted or top-dose-only effect, or effect the other way; inactive = flat fitted curve, though single readings scatter. Potencies beside an inconclusive call are fits to weak or partial responses and may not hold up. More than one record can exist for a structure, and the calls need not agree. % is scaled to controls: 0 for no effect and ±100 for the full control effect; potency is read from the fitted curve at half-maximal effect.", "data": [{"experiment": "qHTS assay for MDR1-selective chemotherapeutics: Primary screen using the drug-selected MDR subline cells KB-V1; also: nearly all actives have a fitted effect of over 60% in size", "conditions": "KB-V1 MDR cells viability, CellTiter-Glo, 72 h; activity change, negative = cytotoxicity: at 46.1 µM (top of the series)", "in_short": "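Compound-treated KB-V1 multidrug-resistant cells, 72 h, 37 degrees C; viability by CellTiter-Glo. Fitted qHTS curves give the values.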", "values": [{"smiles": "NC(CCc1ccccc1)c1csc(Nc2cnccn2)n1", "note": "(stereo unspecified)", "Potency": "inconclusive: 18.4 µM [cytotoxic, partial curve]"}, {"smiles": "CCNc1oc(-c2ccccc2F)nc1S(=O)(=O)c1ccccc1", "Potency": "inconclusive: 11.6 µM [cytotoxic, partial curve]"}, {"smiles": "CCN(CC(=O)NCc1ccc(Cl)cc1)C(=O)/C=C/c1ccc(C#N)cc1", "Potency": "inconclusive: 2.91 µM [cytotoxic, full curve]"}, {"smiles": "O=C(CNC(=O)COc1ccccc1)NCc1cccnc1", "Potency": "inconclusive: 29.1 µM [rising, single point]"}, {"smiles": "O=C(CSc1ccc(C(F)(F)F)cc1[N+](=O)[O-])NCCOc1ccccc1", "activity change, negative = cytotoxicity": "inconclusive: 0%"}, {"smiles": "CC(=O)/C=C/n1c(=S)oc2ccccc21", "Potency": "active: 16.4 µM"}, {"smiles": "COc1cccc(C(C(=O)NC2CCCC2)N(C(=O)c2ccco2)c2ccccc2F)c1OC", "note": "(stereo unspecified)", "Potency": "inconclusive: 3.66 µM [cytotoxic, full curve]"}, {"smiles": "COCCn1c(SCC(=O)NC2CCCCC2C)nc2ccccc2c1=O", "note": "(stereo unspecified)", "Potency": "inconclusive: 3.66 µM [cytotoxic, full curve]"}, {"smiles": "Cc1cccc(C)c1NC(=O)C(c1ccncc1)n1c(=O)c(-c2cc3ccccc3[nH]2)nc2ccccc21", "note": "(stereo unspecified)", "Potency": "inconclusive: 23.1 µM [cytotoxic, single point]"}, {"smiles": "ClC(Cl)c1nnc(-c2ccccc2)c(-c2c[nH]c3ccccc23)n1", "Potency": "inconclusive: 5.17 µM [cytotoxic, partial curve, poor fit]"}, {"smiles": "Cc1ccc(NC(=S)NCC2CCCO2)cc1", "note": "(stereo unspecified)", "activity change, negative = cytotoxicity": "inactive: -27.4%"}, {"smiles": "O=[N+]([O-])c1cc(C(F)(F)F)cc([N+](=O)[O-])c1NCCCNc1ccc([N+](=O)[O-])c2cccnc12", "Potency": "active: 10.3 µM"}, {"smiles": "CCN(Cc1nc2cc(Cl)ccc2c(=O)[nH]1)C(=O)CN1C(=O)NC2(CCCCC2C)C1=O", "note": "(stereo unspecified)", "activity change, negative = cytotoxicity": "inconclusive: 21.7%"}, {"smiles": "Cc1ccc(-n2ncc(C(=O)NCCc3c[nH]c4ccccc34)c2C2CCN(C(=O)OC(C)(C)C)CC2)cc1C", "Potency": "inconclusive: 32.6 µM [cytotoxic, single point]"}, {"smiles": "COc1cc(CN2C[C@@H](CO)O[C@@H](n3cnc4c(NCc5ccco5)ncnc43)C2)cc(OC)c1OC", "activity change, negative = cytotoxicity": "inactive: 2.51%"}, {"smiles": "CS(=O)(=O)N(CC(=O)N1CCOCC1)c1ccccc1", "Potency": "inconclusive: 13 µM [rising, partial curve, poor fit]"}, {"smiles": "CN1C(=O)/C(=C\\C(=O)c2cccs2)c2ccccc21", "Potency": "inconclusive: 29.1 µM [cytotoxic, single point]"}, {"smiles": "Cc1ccc(NC(=O)C(=O)NCCN2CCN(S(=O)(=O)c3ccccc3)CC2)cc1C", "Potency": "inconclusive: 20.6 µM [cytotoxic, single point]"}, {"smiles": "CC(CNC(=O)CCc1nnc(CCC2CCCCC2)o1)c1ccccc1", "note": "(stereo unspecified)", "Potency": "inconclusive: 6.51 µM [cytotoxic, partial curve, poor fit]"}, {"smiles": "O=C(N/N=C/c1cc(Br)c(O)c(Br)c1O)c1ccc2c(c1)OCCO2", "Potency": "inconclusive: 2.59 µM [cytotoxic, full curve, poor fit]"}, {"smiles": "CNC(=O)c1c(NC(=O)/C=C/c2ccccc2Cl)sc2c1CCC2", "activity change, negative = cytotoxicity": "inactive: 0%"}, {"smiles": "C/C(=N\\NC(=O)c1cc(C)nc2ccccc12)c1ccc([N+](=O)[O-])cc1", "activity change, negative = cytotoxicity": "inactive: 4.87%"}, {"smiles": "CCn1c(=O)c2sccc2n2c(CCC(=O)N3CCN(c4ccc(C(C)=O)cc4)CC3)nnc12", "Potency": "inconclusive: 29.1 µM [rising, single point]"}, {"smiles": "CN(C)c1cc[n+](/C(C(=S)Nc2ccc(SC(F)F)cc2)=C(/[O-])c2ccccc2)cc1", "activity change, negative = cytotoxicity": "inactive: 5.55%"}, {"smiles": "CCCNC(=O)c1ccccc1NC(=O)c1ccccc1N(C)S(=O)(=O)c1ccccc1", "Potency": "active: 9.2 µM"}, {"smiles": "Cc1ccc(N2CC(C(=O)N(C)CC(=O)Nc3ccc(Cl)c(C(F)(F)F)c3)CC2=O)cc1", "note": "(stereo unspecified)", "Potency": "inconclusive: 16.4 µM [cytotoxic, single point]"}, {"smiles": "CCc1nc2ccccc2c(C(=O)OCC(=O)C(C)(C)C)c1C", "Potency": "inconclusive: 14.6 µM [cytotoxic, partial curve, poor fit]"}, {"smiles": "CC(C)Cn1c(CN2CCN(C)C(CCO)C2)nc2ccccc21", "note": "(stereo unspecified)", "Potency": "inconclusive: 2.91 µM [rising, partial curve, poor fit]"}, {"smiles": "CN(C(=O)CSC1=Nc2ccccc2C2=NC(c3ccccc3)C(=O)N12)C1CCCCC1", "note": "(stereo unspecified)", "Potency": "active: 5.17 µM"}, {"smiles": "O=C(Cn1c(-c2cccs2)cc2cc(Cl)ccc21)N1CCN(c2ccccc2F)CC1", "activity change, negative = cytotoxicity": "inactive: -5.14%"}, {"smiles": "CC(C)CNC(=O)c1cccc(NC(=O)C(C)Oc2ccccc2)c1", "note": "(stereo unspecified)", "Potency": "inconclusive: 9.2 µM [cytotoxic, partial curve]"}, {"smiles": "CC(CN(C)Cc1ccccc1)OC(=O)c1ccc2c(c1)OCCO2", "note": "(stereo unspecified)", "activity change, negative = cytotoxicity": "inactive: -3.32%"}, {"smiles": "COc1cc(/C=N/n2nnnc2Nc2ccccc2)cc(OC)c1OC", "Potency": "active: 2.59 µM"}, {"smiles": "CCOC(=O)c1[nH]c2ccc(Br)cc2c1NC(=O)CCN1CCCC(C)(C)C1", "Potency": "active: 3.26 µM"}, {"smiles": "CCOC(=O)c1cn[nH]c1NC(=S)Nc1ccc(OC)cc1", "activity change, negative = cytotoxicity": "inconclusive: -34.9%"}, {"smiles": "COc1cccc(-c2nnc(-c3ccccc3NC(=O)c3cccc(C(F)(F)F)c3)o2)c1", "activity change, negative = cytotoxicity": "inactive: -19.2%"}, {"smiles": "CCOC(=O)c1cc(OC(=O)c2ccc(C)cc2)n(-c2ccccc2)n1", "activity change, negative = cytotoxicity": "inactive: 2.67%"}, {"smiles": "COc1cccc(O)c1CN1CCC(n2nccc2NC(=O)c2ccc3c(c2)OCO3)CC1", "Potency": "inconclusive: 20.6 µM [cytotoxic, partial curve, poor fit]"}, {"smiles": "Cc1ccc(CN(C)C(=O)CSc2nnc3n2CCCCC3)c(C)c1", "Potency": "active: 14.6 µM"}, {"smiles": "CCc1ccc(NC(=S)Nc2cccc3cnccc23)cc1", "Potency": "active: 20.6 µM"}, {"smiles": "COCC1CCCN(Cc2cn(Cc3ccccc3)nc2-c2cc3ccccc3o2)C1", "note": "(stereo unspecified)", "activity change, negative = cytotoxicity": "inactive: 3.2%"}, {"smiles": "COc1ccc(CNC(=O)c2cccc(S(=O)(=O)N3CCN(C)CC3)c2)cc1", "Potency": "inconclusive: 18.4 µM [cytotoxic, single point]"}, {"smiles": "O=c1c(S(=O)(=O)c2ccccc2)cn(Cc2cccc(F)c2)c2cc(N3CCOCC3)c(F)cc12", "activity change, negative = cytotoxicity": "inactive: 11.4%"}, {"smiles": "COc1cc(C2SCC(=O)N2CCCN(C)C)cc(OC)c1OC", "note": "(stereo unspecified)", "activity change, negative = cytotoxicity": "inactive: 9.39%"}, {"smiles": "Cn1nc(C(F)(F)F)c(/C=N/OC(=O)c2ccccc2Cl)c1SCc1ccccc1Cl", "Potency": "inconclusive: 18.4 µM [cytotoxic, single point]"}, {"smiles": "CN1CCN(c2ccc([N+](=O)[O-])c(-n3nc(-c4ccccc4)c4ccccc4c3=O)c2)CC1", "Potency": "active: 13 µM"}, {"smiles": "CCn1cc(CCCC(=O)NCc2ccccc2OC)c2ccccc21", "activity change, negative = cytotoxicity": "inactive: -12.3%"}, {"smiles": "COc1cccc(CN2CCC(C(=O)Nc3ccc(-c4cccc(C)c4)cc3)CC2)c1O", "Potency": "inconclusive: 29.1 µM [cytotoxic, single point]"}, {"smiles": "COc1ccc(N(C(=O)c2csnn2)C(C(=O)NC2CCCC2)c2ccccc2)cc1", "note": "(stereo unspecified)", "Potency": "inconclusive: 20.6 µM [cytotoxic, single point]"}, {"smiles": "Cc1ccc(C(=O)Nc2nnc(S(=O)(=O)N3c4ccccc4CC3C)s2)cc1", "note": "(stereo unspecified)", "activity change, negative = cytotoxicity": "inactive: 7.92%"}, {"smiles": "CC(NC(=O)c1ccc(CS(=O)(=O)c2ccc(Cl)cc2)o1)c1ccc2c(c1)OCCO2", "note": "(stereo unspecified)", "Potency": "active: 10.3 µM"}, {"smiles": "Cc1ccccc1NC(c1cccc(Cl)c1)c1nnnn1C1CCCCC1", "note": "(stereo unspecified)", "Potency": "inconclusive: 2.59 µM [cytotoxic, full curve, poor fit]"}, {"smiles": "CCn1c(=O)c([N+](=O)[O-])c(NCCN(C)C)c2ccccc21", "activity change, negative = cytotoxicity": "inactive: -2.6%"}, {"smiles": "Cc1ccc(C)c(N2CCN(S(=O)(=O)c3cc4c(cc3Cl)NC(=O)CO4)CC2)c1", "activity change, negative = cytotoxicity": "inactive: 4.79%"}, {"smiles": "COc1ccc(C2CC(c3ccccc3)=NN2C(=O)CN2CCN(Cc3ccccc3)CC2)cc1", "note": "(stereo unspecified)", "Potency": "active: 23.1 µM"}, {"smiles": "Cc1nc2ccc(S(=O)(=O)N(C)CC(=O)NC(C)c3ccccc3)cc2s1", "note": "(stereo unspecified)", "Potency": "inconclusive: 2.59 µM [cytotoxic, full curve, poor fit]"}, {"smiles": "CCOc1ccc(OCc2ccc(C(=O)NC(C)(C)C)o2)cc1", "Potency": "inconclusive: 9.2 µM [cytotoxic, partial curve]"}, {"smiles": "COc1cccc(C2CNC3(CCCC(C)C3)c3[nH]c4ccccc4c32)c1OC", "note": "(stereo unspecified)", "Potency": "inconclusive: 25.9 µM [cytotoxic, partial curve, poor fit]"}, {"smiles": "O=C(NCCCN1CCCC1=O)c1cc(-c2cccnc2)nc2ccc(Cl)cc12", "Potency": "inconclusive: 13 µM [cytotoxic, partial curve, poor fit]"}, {"smiles": "COc1ccc(CCN(C)C(=O)c2cc(S(=O)(=O)NCc3ccccc3)ccc2C)cc1OC", "Potency": "inconclusive: 29.1 µM [cytotoxic, single point]"}, {"smiles": "O=C(Nc1ccc(Cl)cc1)Nc1nnc(CSCc2ccccc2)s1", "Potency": "active: 20.6 µM"}, {"smiles": "CCOC(=O)C1=C(C)NC(C)=C(C(=O)OCC)C1C(=O)OCC(=O)NCc1ccccc1", "activity change, negative = cytotoxicity": "inconclusive: -11.6%"}, {"smiles": "O=[N+]([O-])c1cnn2cc(Br)cnc12", "activity change, negative = cytotoxicity": "inactive: 13.1%"}, {"smiles": "CCOC(=O)C(/C=C(\\C#N)C(=O)OCC)=C(/N)N1CCN(c2ccc(Cl)cc2)CC1", "activity change, negative = cytotoxicity": "inactive: -13.1%"}, {"smiles": "CSCCC(NS(=O)(=O)c1ccc(Cl)cc1)C(=O)N1CCN(c2ccccc2)CC1", "note": "(stereo unspecified)", "Potency": "active: 14.6 µM"}, {"smiles": "Cc1ccc(-c2nc3ccccn3c2Nc2ccccc2C)s1", "Potency": "inconclusive: 0.651 µM [rising, full curve, poor fit]"}, {"smiles": "COc1ccc(/C=N/NC(=O)COc2ccccc2-c2ccccc2)cc1", "Potency": "active: 0.82 µM"}, {"smiles": "COC(=O)C1=C(C)NC(C)=C(C(=O)OC)C1c1ccccc1[N+](=O)[O-]", "Potency": "active: 8.2 µM"}, {"smiles": "Cc1ccc2cc(CN(Cc3nnnn3Cc3ccco3)CC3CCCO3)c(=O)[nH]c2c1C", "note": "(stereo unspecified)", "activity change, negative = cytotoxicity": "inactive: 0.191%"}, {"smiles": "CC(C)c1ccccc1NC(=O)Cn1c(/C=C/c2ccccc2)nc2ccccc21", "Potency": "inconclusive: 8.2 µM [cytotoxic, partial curve]"}, {"smiles": "COCOCCn1cc(CN2CCS(=O)(=O)N(Cc3ccc(-c4ccccc4)cc3)C(CC(C)C)C2=O)nn1", "note": "(stereo unspecified)", "activity change, negative = cytotoxicity": "inactive: -17.5%"}]}]}
